# Reference: PubChem BioAssay AID1347423 (Functional Genomics Laboratory (NCATS/FGL), 2020)
# Hit rate of the full screen: of about 52,000 sequences, about 210 (0.4%) were called active.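 The calls were made as follows: active = gene whose silencing raises cell survival under the drug, median off-target-corrected z-score across its silencing RNAs 2 or more; inactive = the rest.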 Some of the results follow.
# Experiment: Resistance to Poly (ADP-Ribose) Polymerase inhibitor: Gene Identification via Genome-wide siRNA Screen
# Conditions: mouse BRCA2 R2336H ES cells, olaparib, CellTiter-Glo viability; active compounds read high
# Outline: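 Mouse BRCA2 R2336H ES cells were reverse-transfected with siRNA (20 nM final), treated at 48 h with 500 nM olaparib, and read by CellTiter-Glo after 72 h. Scores: MAD-based z per siRNA, median per gene, seed off-target correction.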
row,Sequence,z-score
1,GGCACAUGAGACAGCUUUUTT against 1810008O21Rik,inactive: -1.23
2,GGAGGCUAGACCUGUUUUUTT against 4932414J04,inactive: 1.3
3,CGUGGUUUGUCAAUGAAGGTT against Eprs,inactive: -2.54
4,GGAGGUGGAGUUCAUCUUUTT against Chrne,inactive: 2.3
5,GGGUGUCAUAUAUAUUGCUTT against Gpr83,inactive: 0.32
6,GGCUGAUAGGUGUAUCUGGTT against Trim11,inactive: -0.0217
7,GGACAUUUUCCGUAGAUUUTT against 2600011C06Rik,inactive: -2.5
8,CGGCAGACAGACCUAUGAUTT against Exosc9,inactive: -0.189
9,CCUCAACUCCCUGUCACACTT against Rnaseh2a,inactive: 1.24
10,GGAUGCUAUACAUUUCUACTT against Stip1,inactive: -0.971
11,GGGAGAAGUGUAACAAAUUTT against A830093M07,inactive: -0.264
12,CCAGGAACGCACUUUGUCATT against Zfp469,inactive: 2.46
13,GGAAUUUCUUAUCCUCAUGTT against Cyp2c29,inactive: -0.35
14,CCCGUGCUGAAGCUAAUAGTT against BC021917,inactive: -2.01
15,CCAUGACAUUUCCUAAGUUTT against B130022O04Rik,inactive: -2.2
16,CGCAGGUGUACAUAGCAGUTT against C130050O18Rik,inactive: -0.34
17,CGAUGUCAUCUUAGCUACGTT against B3gnt6,inactive: 0.965
18,GGUGAUCAGACUAUCAGCUTT against Olfr1384,inactive: 0.19
19,GCCAAUCAAGCACUCGCUCTT against 4930401F20Rik,inactive: 0.688
20,CCUUUGAAAACCUACAAGUTT against Ppara,inactive: 0.237
21,GCGGCUUCAUUUCAAGCUGTT against Lnx2,inactive: 1.3
22,GCCAAUCAACUGAUGGCUUTT against Pax3,inactive: 0.675
23,GGAAACCUGUCCAGUUCUUTT against Slc38a5,inactive: -0.36
24,GGCUCUAUUCAAUGCUAUUTT against A130033B22,inactive: -0.554
25,GUCUGUCAUUUGUGGAAAUTT against Olfr1495,inactive: 0.191
26,GGCUUUUGCUGCUAGAGGUTT against BC059842,inactive: -0.371

row,Sequence,z-score
1,GCAUGCUUAAGCCUAUAAATT against Ncstn,inactive: 0.0957
2,GGUGACCAACUCUAUCAGGTT against Pglyrp1,inactive: 0.189
3,GCCCAGAAUAGACAAACCGTT against 9230106L14Rik,inactive: -0.881
4,GGAGAAAGAAGCCUCUCCATT against B430216B18Rik,inactive: 0.871
5,GCGAGACUAUCAAAUCUAUTT against Gabra4,inactive: 0.85
6,GGAUAAGGAAGGAAUUCCUTT against Rps27a,inactive: -2.93
7,CCCUCAAGAGACCCAAAUUTT against Xrcc1,inactive: -2.81
8,GCCUUAGGGAGUGUUAAAATT against C630041L24Rik,inactive: -0.455
9,GGCCAUUAAAUUUAUCAACTT against Aldh3a1,inactive: 0.155
10,CCUUACCACUUGAAGAUGGTT against Ephx1,inactive: -0.995
11,GGUUUUGAAAUUCCAGAAUTT against 4632412I24Rik,inactive: 0.641
12,GGAUGCAUAUUAAAGAAACTT against Gabrb3,inactive: -0.318
13,GCACGGUAUCUCGAAGUCGTT against 1700067I02Rik,inactive: 0.65
14,GCGAUUUCAUAAAGUAAACTT against 1110059G10Rik,inactive: 0.427
15,CCUCCUGACUACAAGAACUTT against Utp14a,inactive: 0.335
16,GGAGAUAAUGAAAACUGCUTT against 1700006C19Rik,inactive: 0.503
17,GGCGGCAAGCAACAACAAUTT against Ssbp1,inactive: 1.58
18,GGAAAAAGAGCUUUUGGUCTT against Piwil2,inactive: 1.41
19,GCAAGGUCCUUAACGGCAATT against Inpp1,inactive: 0.756
20,GGAUGAGGCGAUUGAGAUUTT against Clic6,inactive: -0.612
21,GCCUAUAGCACUGUGCCAUTT against 2810004A10Rik,inactive: 1.17
22,CCCAUGAAGAUUGUAAGUCTT against C78541,inactive: 0.134
23,GCCGAGUUACAUCGGUGAUTT against Nup93,inactive: 0.557
24,GCCUUUUUAACCAACACAUTT against Gphn,inactive: 1.08
25,GCUGGGAUGGUAUCGUUUCTT against Ripk2,inactive: -0.339
26,GCACCAAAUUCACUAGAGUTT against Cd24a,inactive: -0.279

row,Sequence,z-score
1,GGCCAUGAACUUUGAAGAGTT against Uap1,inactive: 0.946
2,GGUUGAUGACAACAAGAAATT against Rps12,inactive: -2.95
3,CCAUUUGGGACUAUAGACGTT against Tnrc4,inactive: -0.467
4,GGCCUGGCACCUCAUAUUATT against 6030411K04Rik,inactive: -2.16
5,GGCCAGUCUGGGAUUUUUGTT against 1700084P21Rik,inactive: 0.642
6,GGCCAUUUGUAUGUGCACCTT against Tgfbr1,inactive: 2.08
7,GGAACAGCAUCGUAACUAUTT against 4732435N03Rik,inactive: -0.0465
8,GGAAAGCAAUACAAUCAAATT against 1110007M04Rik,inactive: 0.777
9,CCUUACCAAUGUUCAUUUATT against C130057D23Rik,inactive: 0.972
10,GGCUUUUGAAGCCAUCAAGTT against Mrp63,inactive: 0.863
11,GCAAAGGAACGAGUUUGAGTT against 1110017I16Rik,inactive: 0.166
12,GCGGUGUGCUGGAUAAUUCTT against Vit,inactive: -1.88
13,GCCAUUUGUUAGCAGUCACTT against BC018101,inactive: 0.0704
14,GGAACCAACAGAGAAAACUTT against Hr,inactive: 0.231
15,CUUCCUGAGGAGAAUGUAUTT against Krt2-10,inactive: -0.883
16,GCUAACACUGCGCUUGGAATT against 1700067K01Rik,inactive: -1.66
17,GGAGAGGUAAAAAUGUUGUTT against Dnaja1,inactive: 0.532
18,GCUCGUACACAAUGAACACTT against Jam2,inactive: -1.27
19,GCUGUACAAUAACAGUAUGTT against Mir16,inactive: -0.538
20,GCUAUGUCUCAACUGUUCATT against Trf3,inactive: -1.01
21,GCGGAAUUGGAAAAUGCCGTT against Hbs1l,inactive: 1.42
22,GGAACUCAGAGGUGAAAGCTT against Olfr70,inactive: 0.267
23,GGCAUGAUCAGCACAUCACTT against Rpap1,inactive: -0.292
24,GCACAAGUAUUCUCAAAUGTT against Adcy8,inactive: 0.471
25,CCAAUAGCUUCCAGAAACATT against 1200009I06Rik,inactive: -1.8
26,GCUUGUAUGAGAUUACCUATT against Ttc1,inactive: 0.348

# For reference, part of the list above:
row,Sequence,z-score
6,GGCCAUUUGUAUGUGCACCTT against Tgfbr1,inactive: 2.08
7,GGAACAGCAUCGUAACUAUTT against 4732435N03Rik,inactive: -0.0465
8,GGAAAGCAAUACAAUCAAATT against 1110007M04Rik,inactive: 0.777
9,CCUUACCAAUGUUCAUUUATT against C130057D23Rik,inactive: 0.972
10,GGCUUUUGAAGCCAUCAAGTT against Mrp63,inactive: 0.863

# Additional results follow:

row,Sequence,z-score
1,GCUAGAAAGGACUUCGUGGTT against 4732472I07Rik,inactive: 0.972
2,CCCGGUACUAUAAUGCCAATT against Zmynd19,inactive: 0.657
3,GGACAAAUUUCUUUUCCUUTT against Atp10a,inactive: 0.636
4,GGCCAGAUUACUCACCUAUTT against Birc3,inactive: 0.074
5,GGCUAUGCUUCUUUCCUUUTT against Cfhl1,inactive: 0.305
6,GGAGACCUUUCUGAAAGUCTT against A130038L21Rik,inactive: -0.341
7,GGCAUUCCUUAACUACUACTT against Lbp,inactive: -1.41
8,GGAUGUUUGGACAAUCUAUTT against Itga4,inactive: -0.47
9,CGUCUCCAUAGAUCUAGAUTT against Creb3,inactive: -0.154
10,GCUUCAACCCGGUCACACUTT against Kif6,inactive: -0.376
11,GGCAUCUGAACAGGCAGACTT against Acvrl1,inactive: 1.73
12,GUGUUCAGUAUGCUGGCAGTT against Klra6,inactive: 0.684
13,GCAUCGAAAAUCUUUCCAATT against Fibcd1,inactive: -0.194
14,CCCAGUAACUAGUUUGUAATT against A630005A06Rik,inactive: -0.204
15,UCUACCAUCUUUGCCUACCTT against Olfr1182,inactive: -0.556
16,GCUAGAGUACAGCAAGCUGTT against 2810401C16Rik,inactive: -0.958
17,GGCAAAAGCAGACAUUGAATT against 2610009I02Rik,inactive: 0.436
18,GGUGUCAUCCUUUACAGUUTT against Ate1,inactive: -1.18
19,GGGACAUUAUGCUUAUGACTT against Sfrs7,inactive: -1.46
20,GGUGCUUCACGUCGAUUACTT against Tdrd6,inactive: -0.449
21,GGGACUGGAACAAUAGAGGTT against BC030500,inactive: 0.0679
22,GGGAUAAAACUCAAUAGUATT against BC043934,inactive: 0.575
23,GGCUAUUAGAAGGAAAACUTT against Olfr8,inactive: -0.31
24,CGCACGAGAAGACCUCUUUTT against LOC432552,inactive: 0.117
25,GGCAAAACUGUCGAGGUCCTT against Uck1,inactive: 0.0586
